From paper doi:10.1101/2023.12.13.571563
No constants are given. Whether binding was seen depends on the method and setting. Binding seen in cells or lysates may run through a third protein. Some results given as binding are weak or reduced against the parent protein; the word gives no strength.

Chains of the proteins cited; added tags and fusions are not shown.
UniProt Q39026: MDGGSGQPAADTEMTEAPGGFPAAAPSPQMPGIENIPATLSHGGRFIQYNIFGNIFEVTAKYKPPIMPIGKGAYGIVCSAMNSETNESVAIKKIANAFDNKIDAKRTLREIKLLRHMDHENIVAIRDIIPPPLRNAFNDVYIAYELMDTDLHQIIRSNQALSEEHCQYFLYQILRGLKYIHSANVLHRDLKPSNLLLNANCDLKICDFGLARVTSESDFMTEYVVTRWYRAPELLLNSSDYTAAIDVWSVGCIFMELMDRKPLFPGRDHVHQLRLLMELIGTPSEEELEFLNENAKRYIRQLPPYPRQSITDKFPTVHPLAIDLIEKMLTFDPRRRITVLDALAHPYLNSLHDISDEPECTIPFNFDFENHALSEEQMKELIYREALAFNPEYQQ

T1: WLIM2A (At2g39900) (Arabidopsis) (UniProt O04193)
T1 sequence: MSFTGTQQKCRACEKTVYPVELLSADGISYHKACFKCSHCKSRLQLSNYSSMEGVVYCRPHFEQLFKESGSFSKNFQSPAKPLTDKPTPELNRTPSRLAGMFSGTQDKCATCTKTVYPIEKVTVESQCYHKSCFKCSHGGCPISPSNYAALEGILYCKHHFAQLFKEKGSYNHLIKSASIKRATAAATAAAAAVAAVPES


Target: T1, WLIM2A (At2g39900) (Arabidopsis)
Test: split reporter

Row | Molecule | binding
1 | MPK6 (from UniProt Q39026 1-395) (enzyme) | binds
2 | MPK3 (enzyme, UniProt Q39023 1-370) MNTGGGQYTDFPAVETHGGQFISYDIFGSLFEITSKYRPPIIPIGRGAYGIVCSVLDTETNELVAMKKIANAFDNHMDAKRTLREIKLLRHLDHENIIAIRDVVPPPLRRQFSDVYISTELMDTDLHQIIRSNQSLSEEHCQYFLYQLLRGLKYIHSANIIHRDLKPSNLLLNANCDLKICDFGLARPTSENDFMTEYVVTRWYRAPELLLNSSDYTAAIDVWSVGCIFMELMNRKPLFPGKDHVHQMRLLTELLGTPTESDLGFTHNEDAKRYIRQLPNFPRQPLAKLFSHVNPMAIDLVDRMLTFDPNRRITVEQALNHQYLAKLHDPNDEPICQKPFSFEFEQQPLDEEQIKEMIYQEAIALNPTYG | binds
